Experimental data as given in article PMC9475456, “DDX56 transcriptionally activates MIST1 to facilitate tumorigenesis of HCC through PTEN-AKT signaling”.
Construct, isoform or probe ends are uncertain for at least one entry. For part of these data: No signal at the amounts used counts as a negative. At least one verdict rests on a figure or table, not on a statement of the authors. Tags and fusion partners may be left off the protein sequences shown.

molecular target: T1, DDX56 (His-DDX56) (human) (UniProt Q9NY93); experiment: EMSA; conditions: LightShift EMSA kit, 20 uL: 2 uL 10x binding buffer, 1 uL 50% glycerol, 1 uL 100 mM MgCl2, 1 ug/uL poly(dI-dC), 1 uL 1% NP-40, 2 ug protein; commercial protein; protein details: N-terminal His; label: 5' biotin
T1 sequence (looked up, limits assumed): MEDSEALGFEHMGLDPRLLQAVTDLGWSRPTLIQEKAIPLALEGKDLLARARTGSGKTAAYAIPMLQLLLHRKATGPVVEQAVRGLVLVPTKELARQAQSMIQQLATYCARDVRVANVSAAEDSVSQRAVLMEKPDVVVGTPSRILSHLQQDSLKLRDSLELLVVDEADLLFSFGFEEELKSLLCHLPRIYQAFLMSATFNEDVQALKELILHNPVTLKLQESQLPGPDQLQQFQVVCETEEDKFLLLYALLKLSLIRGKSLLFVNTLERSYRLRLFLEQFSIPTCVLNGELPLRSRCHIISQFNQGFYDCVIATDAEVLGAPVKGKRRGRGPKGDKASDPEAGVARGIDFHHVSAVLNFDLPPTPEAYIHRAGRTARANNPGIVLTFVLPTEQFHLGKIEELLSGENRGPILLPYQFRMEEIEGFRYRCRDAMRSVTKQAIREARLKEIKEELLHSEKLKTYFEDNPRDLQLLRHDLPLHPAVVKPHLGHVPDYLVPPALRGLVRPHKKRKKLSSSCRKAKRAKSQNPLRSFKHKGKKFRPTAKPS

Sequence	binding result
CGGACCCCGGCCCCGCCCCGGCCCCGCCCCGAGGGCTCATTTGC (double strand) [MIST1 promoter -72 to -29]	no binding
TTCTATCTTGGGGGCGGGGCGGAAGCTGGGGGCGGGGCTGCGCG (double strand) [MIST1 promoter -204 to -161]	no binding
TGTCCCCCGTGGGCAGCCTCGGCGCGTGTGGCCGCGGATCCCCAGGTAAC (double strand) [MIST1 promoter +16 to +64]	no binding
ATGCGTCCGCGGCCCCTCCCGGGGCGGCTAAAGCGACGTGTCCT (double strand) [MIST1 promoter -28 to +15]	no binding
GCCCGCAGGTGCCGCCACTGCTGCCCAGCGCCCGCCGGGACACC (double strand) [MIST1 promoter -116 to -73]	no binding

molecular target: T1, DDX56 (His-DDX56) (human); experiment: competition with a labelled probe; conditions: 200-fold excess unlabeled probe inhibits binding of biotin probe; LightShift EMSA kit, 20 uL: 2 uL 10x binding buffer, 1 uL 50% glycerol, 1 uL 100 mM MgCl2, 1 ug/uL poly(dI-dC), 1 uL 1% NP-40, 2 ug protein; commercial protein; protein details: N-terminal His

Sequence	binding result
GCCACCTGGTCCGGGAGCCCCAGGCGCCGGCCTCCCGCCCGCCC (double strand) [unlabeled MIST1 competitor (-160 to -117)]	binds
